{"sequences": {"note": "Chains of the proteins cited; added tags and fusions are not shown.", "UniProt Q0JBA9, entry or part of it": "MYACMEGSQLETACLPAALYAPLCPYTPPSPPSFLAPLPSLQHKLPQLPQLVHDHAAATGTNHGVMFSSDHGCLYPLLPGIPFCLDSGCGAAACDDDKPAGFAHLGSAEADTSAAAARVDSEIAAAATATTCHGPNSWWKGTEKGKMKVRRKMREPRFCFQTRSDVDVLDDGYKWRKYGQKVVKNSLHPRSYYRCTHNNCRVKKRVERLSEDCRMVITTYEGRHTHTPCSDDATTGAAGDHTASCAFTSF"}, "source": "paper PMC7819943", "about": "“Rice protein-binding microarrays: a tool to detect cis-acting elements near promoter regions in rice”", "note": "This is one part of the list."}
{"biological_target": "OsWRKY34 (Oryza sativa, UniProt Q0JBA9 1-250)", "experiment": "protein-binding microarray (RPBM); PBS, 2% BSA, 51.3 ng/ul salmon testes DNA, 50 uM zinc acetate, 200 nM TF, 25 C, 1 h; high values mean tight binding", "conditions": "protein: recombinant; tags: N-terminal polyhistidine and DsRed monomer fusion (pET32a); label: CyDye5-dUTP incorporated in the synthesized complementary strand; 3' TTTTT single-stranded linker to array surface; dsDNA, one strand shown", "in_short": "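The binding signal is fluorescence intensity per feature, in arbitrary units, read on an Axon 4000B scanner. Polyhistidine- and DsRed-tagged transcription factors (N-terminal fusions) from E. coli BL21-CodonPlus were purified on Ni–NTA and applied at 200 nM for 1 h at 25 °C to a double-stranded, BSA-blocked custom Agilent array in buffer with 50 µM zinc acetate.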"}
{"sequence": "TGTTGTCAGTACATACTCTGGTTAATCTGCAATTCTGCATCGGAGTCACCTAGTGCAG", "binding signal": "8200 fluorescence intensity (a.u.)"}
{"sequence": "TAGTTATGCCACATGTGTTTATTTTGTTGTCGCACCTATACGGAGTCACCTAGTGCAG", "binding signal": "8720 fluorescence intensity (a.u.)"}
{"sequence": "ACCGCTGCCAGAGAAATTCTGACCCATGCTCATAACACAACGGAGTCACCTAGTGCAG", "binding signal": "9960 fluorescence intensity (a.u.)"}
{"sequence": "GCTGTATATGTCGCCATGTTGGTTCTATGCTCTTATATTTCGGAGTCACCTAGTGCAG", "binding signal": "11500 fluorescence intensity (a.u.)"}
{"sequence": "GTGCCACTCTGTCTCTTCCGTCCATAGCGCCGTCGTCTTCCGGAGTCACCTAGTGCAG", "binding signal": "17300 fluorescence intensity (a.u.)"}
{"sequence": "TCCCTCTTATTCACCGCACCTATCGCCGAGCTCCTCGTCGCGGAGTCACCTAGTGCAG", "binding signal": "10100 fluorescence intensity (a.u.)"}
{"sequence": "GCTTTTCATTTGTTTACACGGATTTATGGCGGTTTGCAGTCGGAGTCACCTAGTGCAG", "binding signal": "8830 fluorescence intensity (a.u.)"}
{"sequence": "TTGCATTACCGGTTTCTCCCGCACATTAACTGATCACACCCGGAGTCACCTAGTGCAG", "binding signal": "8660 fluorescence intensity (a.u.)"}
{"sequence": "CTGGTGGTCGGTTCAGTCGGGCGGGCGGGCGGGCTCACCGCGGAGTCACCTAGTGCAG", "binding signal": "22800 fluorescence intensity (a.u.)"}
{"sequence": "CTGGGTTGCTGGTTCTTTTTCTGCTCTTTTCATTTACAAACGGAGTCACCTAGTGCAG", "binding signal": "13700 fluorescence intensity (a.u.)"}
{"sequence": "CAGTCCTCACACGTTCTCTTCCTCTCTCTCTCTCTCACTCCGGAGTCACCTAGTGCAG", "binding signal": "10400 fluorescence intensity (a.u.)"}
{"sequence": "ATGTTATCATGTATTCACCGTCTCCGGGCCTATGAGCATTCGGAGTCACCTAGTGCAG", "binding signal": "8430 fluorescence intensity (a.u.)"}
{"sequence": "GATGCTTATGATGTCTAGTACGGTATACATGTCAACAAGACGGAGTCACCTAGTGCAG", "binding signal": "8890 fluorescence intensity (a.u.)"}
{"sequence": "TCTCCCATCTTTTATTGCCATTTGTCATTACTGTTCTAGACGGAGTCACCTAGTGCAG", "binding signal": "13800 fluorescence intensity (a.u.)"}
{"sequence": "TTGGCCTCTTGTATACTACCATTTGCAACAATAAAGCTTTCGGAGTCACCTAGTGCAG", "binding signal": "8810 fluorescence intensity (a.u.)"}
{"sequence": "ATCTCTTCCTCAATCTGCTTATTTCTTCTCTTGTAAGAATCGGAGTCACCTAGTGCAG", "binding signal": "8890 fluorescence intensity (a.u.)"}
{"sequence": "GCCGTCCGTTGACCGCACGCACCGCACGAATCTCGAGGCGCGGAGTCACCTAGTGCAG", "binding signal": "10800 fluorescence intensity (a.u.)"}
{"sequence": "TCTTTTTCTATGCATGTGCGCTTATGGTGGAGTGGTGATACGGAGTCACCTAGTGCAG", "binding signal": "9140 fluorescence intensity (a.u.)"}
{"sequence": "TAGTATGTTTGTAATATCGATATTGGCCTATATATATTTGCGGAGTCACCTAGTGCAG", "binding signal": "9310 fluorescence intensity (a.u.)"}
{"sequence": "CGCCCACTTGACTATTTCGTGGACCCTTCCTGTCTTGTCCCGGAGTCACCTAGTGCAG", "binding signal": "11600 fluorescence intensity (a.u.)"}
{"sequence": "TTTTTTGTGGTTTTCTTATTTGACCCTATTTTTTAAAACTCGGAGTCACCTAGTGCAG", "binding signal": "8160 fluorescence intensity (a.u.)"}
{"sequence": "CGTTCTCGTACGCACTTTGTCCCTACCATTGGTGATTGCTCGGAGTCACCTAGTGCAG", "binding signal": "11900 fluorescence intensity (a.u.)"}
{"sequence": "TTGTTCTTCTTTTTTGGTCTGGTTTTTTTTGTGGTTTCTTCGGAGTCACCTAGTGCAG", "binding signal": "16700 fluorescence intensity (a.u.)"}
{"sequence": "GCATGTGGCTTAAACTTTTTGGTTGGATATTTGCTTGTAACGGAGTCACCTAGTGCAG", "binding signal": "9440 fluorescence intensity (a.u.)"}
{"sequence": "TTTGTTTCTAGCATTTTCAATTTGAGTTTCATTAATTCATCGGAGTCACCTAGTGCAG", "binding signal": "10200 fluorescence intensity (a.u.)"}
{"sequence": "ATCAACCTTTCTAGCTGGCTATCTGTACTTTGATTTATCACGGAGTCACCTAGTGCAG", "binding signal": "13500 fluorescence intensity (a.u.)"}
{"sequence": "CCTCCCGCGGAAGCACACCAACCGCTTGCCGAACGTACCACGGAGTCACCTAGTGCAG", "binding signal": "10800 fluorescence intensity (a.u.)"}
{"sequence": "CACTCTTACCCGACTCTGCCTAACCGTCAGCCCCGTCCTGCGGAGTCACCTAGTGCAG", "binding signal": "11200 fluorescence intensity (a.u.)"}
{"sequence": "AATGTATGTAACTGCATTACACTTGTCCATTTCTCAGTTACGGAGTCACCTAGTGCAG", "binding signal": "10500 fluorescence intensity (a.u.)"}
{"sequence": "TGTTTCTATTCTTTATTTTGGTTTAATACTCCCTCATTCCCGGAGTCACCTAGTGCAG", "binding signal": "10100 fluorescence intensity (a.u.)"}
{"sequence": "TCTTGTTCATTTCTCTCTTGCTCCGGCTCGCCTCGCATCGCGGAGTCACCTAGTGCAG", "binding signal": "8300 fluorescence intensity (a.u.)"}
{"sequence": "TAATAACCGTTTTGATCTAATCCACCTGCTCCCGTCGCGTCGGAGTCACCTAGTGCAG", "binding signal": "9450 fluorescence intensity (a.u.)"}
{"sequence": "AAGTTTAGGTTTTGGGTATACCAACCATTCACACCTCCCTCGGAGTCACCTAGTGCAG", "binding signal": "8420 fluorescence intensity (a.u.)"}
{"sequence": "AGCTTCGTCGCTGCCATATCCATTGTCGTTAACCGTCAACCGGAGTCACCTAGTGCAG", "binding signal": "11300 fluorescence intensity (a.u.)"}
{"sequence": "TCTTTCATAGTTTCATTCATACTTCTTTTCAACTAGCTTTCGGAGTCACCTAGTGCAG", "binding signal": "8400 fluorescence intensity (a.u.)"}
{"sequence": "AACGGTGGGAGTAATGTTTTTCTCGGTTGCAAACAACTTTCGGAGTCACCTAGTGCAG", "binding signal": "8100 fluorescence intensity (a.u.)"}
{"sequence": "TTGTCGCTGCGCCTGCGTCCGATTCACCGTCGCGCCGCCGCGGAGTCACCTAGTGCAG", "binding signal": "9570 fluorescence intensity (a.u.)"}
{"sequence": "AATTCTATATTCCATGCTCGTTACTGGGTTTCAGTTGACACGGAGTCACCTAGTGCAG", "binding signal": "8140 fluorescence intensity (a.u.)"}
{"sequence": "GACTACGCTTAATACTTCAAATATATATCCGTATATCCGACGGAGTCACCTAGTGCAG", "binding signal": "8070 fluorescence intensity (a.u.)"}
{"sequence": "CTTAATTTGCCAGCTGCTTGTGTGTTCTCCTTGCCGATCCCGGAGTCACCTAGTGCAG", "binding signal": "12200 fluorescence intensity (a.u.)"}
{"sequence": "TTACATTACTCCGCCCGCTGCGGCGAGGATTCCCTCGATCCGGAGTCACCTAGTGCAG", "binding signal": "8590 fluorescence intensity (a.u.)"}
{"sequence": "GACGGATTGCTTTGTGCATTGTCAATCAGTACATCCTCTTCGGAGTCACCTAGTGCAG", "binding signal": "8030 fluorescence intensity (a.u.)"}
